Construct, isoform or probe ends are uncertain for at least one entry. A weaker result is weaker than the reference pair of the same experiment.
Target: His-Sam68, ERK-phosphorylated (mouse) (UniProt Q60749)
Assay: EMSA
Settings: ERK-thiophosphorylated, pH and temperature not given, recombinant protein, protein details: His (pQE-32)

The chains behind the UniProt entries cited, without tags or fusion partners.
UniProt Q60749, whole entry: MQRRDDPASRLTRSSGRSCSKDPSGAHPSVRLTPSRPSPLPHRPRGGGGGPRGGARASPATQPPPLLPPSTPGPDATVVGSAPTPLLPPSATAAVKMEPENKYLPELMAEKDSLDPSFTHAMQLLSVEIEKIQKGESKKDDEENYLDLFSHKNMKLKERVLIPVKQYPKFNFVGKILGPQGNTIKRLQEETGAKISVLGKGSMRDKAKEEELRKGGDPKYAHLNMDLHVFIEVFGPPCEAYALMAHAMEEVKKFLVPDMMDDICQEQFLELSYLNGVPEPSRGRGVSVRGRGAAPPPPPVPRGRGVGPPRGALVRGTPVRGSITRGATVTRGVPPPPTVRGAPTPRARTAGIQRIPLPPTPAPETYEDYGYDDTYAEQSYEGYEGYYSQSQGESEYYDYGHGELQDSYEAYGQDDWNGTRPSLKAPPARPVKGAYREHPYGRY

| Sequence | binding result (175 and 250 ng protein) | binding result (25 and 50 ng protein) |
| --- | --- | --- |
| GAAGAAGAGGAUUAUUAAAGACUAUUUGAUUAGA [CD44 intronic Sam68 site RNA (wt)] | binds more weakly |  |
| AUAGACAGAAUCAGCACCAGUGCUCAUGGAGAAAAUUGGACC [CD44 v5 exonic Sam68 site RNA] |  | binds more weakly |

From publication PMC2169300
